Source: the supplement of paper PMC4604168 (melanoma cell lines)
This is one part of the list. Single values are uncertain, as repeats are few or missing.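 Imaging used 1,536-well plates; nuclei positive for cleaved PARP by antibody were divided by total DNA-stained nuclei to yield the apoptosis fraction. Doses for screening kept most cells viable, and cell lines differ markedly in resting and induced cleaved-PARP levels.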

test system: LOXIMVI; experiment: cleaved PARP positive nuclei fraction relative to DMSO control; melanoma cells; higher = more apoptosis; conditions: library dose: low library concentration; 72 h

| Structure (SMILES) | cleaved PARP positive nuclei fraction [%] |
| --- | --- |
| N#CC[C@H](C1CCCC1)n1cc(-c2ncnc3[nH]ccc23)cn1 [ruxolitinib] + CO[C@H]1C[C@@H]2CC[C@@H](C)[C@@](O)(O2)C(=O)C(=O)N2CCCC[C@H]2C(=O)O[C@H]([C@H](C)C[C@@H]2CC[C@@H](OCCO)[C@H](OC)C2)CC(=O)[C@H](C)/C=C(\C)[C@@H](O)[C@@H](OC)C(=O)[C@H](C)C[C@H](C)/C=C/C=C/C=C/1C [everolimus] (first compound 1 µM, partner dose 0.02 µM) | 169 |
| Cc1ccc(Nc2nccc(N(C)c3ccc4c(C)n(C)nc4c3)n2)cc1S(N)(=O)=O [Pazopanib] + Cn1nnc2c(C(N)=O)ncn2c1=O [temozolomide] (first compound 0.4 µM, partner dose 2 µM) | 262 |
| O=c1[nH]nc(Sc2ncc([N+](=O)[O-])s2)n1-c1ccc2c(c1)OCCO2 + CCCS(=O)(=O)Nc1ccc(F)c(C(=O)c2c[nH]c3ncc(Cl)cc23)c1F [PLX4720] (first compound 0.2 µM, partner dose 0.08 µM) | 39.8 |
| Cc1ccc(Nc2nccc(N(C)c3ccc4c(C)n(C)nc4c3)n2)cc1S(N)(=O)=O [Pazopanib] + CC(=O)c1c(C)c2cnc(Nc3ccc(N4CCNCC4)cn3)nc2n(C2CCCC2)c1=O [palbociclib] (first compound 0.4 µM, partner dose 0.04 µM) | 89.5 |
| Cc1cn(-c2cc(NC(=O)c3ccc(C)c(Nc4nccc(-c5cccnc5)n4)c3)cc(C(F)(F)F)c2)cn1 [nilotinib] + CN(c1ncccc1CNc1nc(Nc2ccc3c(c2)CC(=O)N3)ncc1C(F)(F)F)S(C)(=O)=O [PF562271] (first compound 0.2 µM, partner dose 0.08 µM) | 43.5 |
| CC[C@]1(O)C[C@H]2CN(CCc3c([nH]c4ccccc34)[C@@](C(=O)OC)(c3cc4c(cc3OC)N(C=O)[C@H]3[C@@](O)(C(=O)OC)[C@H](OC(C)=O)[C@]5(CC)C=CCN6CC[C@]43[C@@H]65)C2)C1 [vincristine] + COCC[n+]1c2c(n(Cc3cnccn3)c1C)C(=O)c1ccccc1C2=O [YM155] (first compound 0.0001 µM, partner dose 0.0004 µM) | 64.8 |
| Cc1cn(-c2cc(NC(=O)c3ccc(C)c(Nc4nccc(-c5cccnc5)n4)c3)cc(C(F)(F)F)c2)cn1 [nilotinib] + O=C(O)[C@@H]1[O][Sb](=[O])([O][Sb]2(=[O])[O][C@H]([C@H](O)CO)[C@H](O)[C@H](C(=O)O)[O]2)[O][C@H]([C@H](O)CO)[C@@H]1O [stibogluconate] (first compound 0.2 µM, partner dose 2 µM) | 52.6 |
| COc1cc([C@@H]2c3cc4c(cc3[C@@H](O[C@@H]3O[C@@H]5CO[C@@H](C)O[C@H]5[C@H](O)[C@H]3O)[C@H]3COC(=O)[C@H]23)OCO4)cc(OC)c1O [etoposide] + CCCCCCCCCCCCCCCCCCOP(=O)([O-])OC1CC[N+](C)(C)CC1 [Perifosine] (first compound 0.02 µM, partner dose 0.4 µM) | 99.2 |
| O=C(/C=C/c1cccnc1)NCCCCC1CCN(C(=O)c2ccccc2)CC1 + CS(=O)(=O)c1ccc(C(=O)Nc2ccc(Cl)c(-c3ccccn3)c2)c(Cl)c1 [vismodegib] (first compound 0.01 µM, partner dose 1 µM) | 205 |
| O=C(Nc1cc(C(F)(F)F)cc(C(F)(F)F)c1)c1cc(Cl)ccc1O + CCCCCCCCc1ccc(CCC(N)(CO)CO)cc1 [fingolimod] (first compound 0.016 µM, partner dose 2 µM) | 93.3 |
| CC[C@]1(O)C[C@H]2CN(CCc3c([nH]c4ccccc34)[C@@](C(=O)OC)(c3cc4c(cc3OC)N(C=O)[C@H]3[C@@](O)(C(=O)OC)[C@H](OC(C)=O)[C@]5(CC)C=CCN6CC[C@]43[C@@H]65)C2)C1 [vincristine] + CCCCCCCCCCCCCCCCCCOP(=O)([O-])OC1CC[N+](C)(C)CC1 [Perifosine] (first compound 0.0001 µM, partner dose 0.4 µM) | 126 |
| Cc1cc(Nc2cc(N3CCN(C)CC3)nc(Sc3ccc(NC(=O)C4CC4)cc3)n2)n[nH]1 [Tozasertib] + C#Cc1cccc(Nc2ncnc3cc(OCCOC)c(OCCOC)cc23)c1 [erlotinib] (first compound 0.006 µM, partner dose 0.8 µM) | 169 |
| Cc1cc(Nc2cc(N3CCN(C)CC3)nc(Sc3ccc(NC(=O)C4CC4)cc3)n2)n[nH]1 [Tozasertib] + CO[C@H]1C[C@@H]2CC[C@@H](C)[C@@](O)(O2)C(=O)C(=O)N2CCCC[C@H]2C(=O)O[C@H]([C@H](C)C[C@@H]2CC[C@@H](OCCO)[C@H](OC)C2)CC(=O)[C@H](C)/C=C(\C)[C@@H](O)[C@@H](OC)C(=O)[C@H](C)C[C@H](C)/C=C/C=C/C=C/1C [everolimus] (first compound 0.006 µM, partner dose 0.02 µM) | 113 |
| Cc1ccc(Nc2nccc(N(C)c3ccc4c(C)n(C)nc4c3)n2)cc1S(N)(=O)=O [Pazopanib] + C#Cc1cccc(Nc2ncnc3cc(OCCOC)c(OCCOC)cc23)c1 [erlotinib] (first compound 0.4 µM, partner dose 0.8 µM) | 55.1 |
| CCCCCCCCCCCCCCCCCCOP(=O)([O-])OC1CC[N+](C)(C)CC1 [Perifosine] + C=C(c1ccc(C(=O)O)cc1)c1cc2c(cc1C)C(C)(C)CCC2(C)C [Bexarotene] (first compound 0.4 µM, partner dose 2 µM) | 96.5 |
| O=c1[nH]nc(Sc2ncc([N+](=O)[O-])s2)n1-c1ccc2c(c1)OCCO2 + Cc1cc(Nc2cc(N3CCN(C)CC3)nc(/C=C/c3ccccc3)n2)n[nH]1 [ENMD2076] (first compound 0.2 µM, partner dose 0.04 µM) | 78.3 |
| CCCCCCCCCCCCCCCCCCOP(=O)([O-])OC1CC[N+](C)(C)CC1 [Perifosine] + Clc1ccc(Nc2nnc(Cc3ccncc3)c3ccccc23)cc1 [vatalanib] (first compound 0.4 µM, partner dose 2 µM) | 61.8 |
| Cc1cn(-c2cc(NC(=O)c3ccc(C)c(Nc4nccc(-c5cccnc5)n4)c3)cc(C(F)(F)F)c2)cn1 [nilotinib] + Cn1nnc2c(C(N)=O)ncn2c1=O [temozolomide] (first compound 0.2 µM, partner dose 2 µM) | 251 |

Nothing new here: an excerpt of the list.

| Structure (SMILES) | cleaved PARP positive nuclei fraction [%] |
| --- | --- |
| CCCCCCCCCCCCCCCCCCOP(=O)([O-])OC1CC[N+](C)(C)CC1 [Perifosine] + Clc1ccc(Nc2nnc(Cc3ccncc3)c3ccccc23)cc1 [vatalanib] (first compound 0.4 µM, partner dose 2 µM) | 61.8 |
| Cc1cn(-c2cc(NC(=O)c3ccc(C)c(Nc4nccc(-c5cccnc5)n4)c3)cc(C(F)(F)F)c2)cn1 [nilotinib] + Cn1nnc2c(C(N)=O)ncn2c1=O [temozolomide] (first compound 0.2 µM, partner dose 2 µM) | 251 |
